Substitutions are numbered along the chain they refer to. Some of the results follow.
Columns and labels:
Details in all cases: yeast three-hybrid, YBZ-1, SC-Leu-His + 0.5 mM 3-AT, 4 days
[1] = molecular target: T1, PUM1 PUF domain R4-ANC N971A + H972N + Q975C (Homo sapiens) (UniProt Q14671)
T1 sequence: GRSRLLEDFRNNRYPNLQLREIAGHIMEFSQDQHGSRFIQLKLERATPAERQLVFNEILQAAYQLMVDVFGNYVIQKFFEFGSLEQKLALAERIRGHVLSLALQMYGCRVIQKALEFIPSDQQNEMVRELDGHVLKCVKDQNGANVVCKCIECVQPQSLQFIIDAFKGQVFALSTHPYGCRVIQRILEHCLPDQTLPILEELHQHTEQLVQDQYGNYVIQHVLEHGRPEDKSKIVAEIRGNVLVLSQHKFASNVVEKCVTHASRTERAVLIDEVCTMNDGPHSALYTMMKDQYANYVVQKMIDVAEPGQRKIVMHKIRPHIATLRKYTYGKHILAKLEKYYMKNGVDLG

[2] = molecular target: T2, PUM1 PUF domain R4-ARR N971A + H972R + Q975R (Homo sapiens) (UniProt Q14671)
T2 sequence: T1 sequence with N145R, C148R

[3] = molecular target: T3, PUM1 PUF domain R4-EHR N971E + Q975R (Homo sapiens) (UniProt Q14671)
T3 sequence: T1 sequence with A144E, N145H, C148R

[4] = molecular target: T4, PUM1 PUF domain R4-EYR N971E + H972Y + Q975R (Homo sapiens) (UniProt Q14671)
T4 sequence: T1 sequence with A144E, N145Y, C148R

[5] = molecular target: T5, PUM1 PUF domain R4-FAA N971F + H972A + Q975A (Homo sapiens) (UniProt Q14671)
T5 sequence: T1 sequence with A144F, N145A, C148A

[6] = molecular target: T6, PUM1 PUF domain R4-GNL N971G + H972N + Q975L (Homo sapiens) (UniProt Q14671)
T6 sequence: T1 sequence with A144G, C148L

[7] = molecular target: T7, PUM1 PUF domain R4-GNR N971G + H972N + Q975R (Homo sapiens) (UniProt Q14671)
T7 sequence: T1 sequence with A144G, C148R

[8] = molecular target: T8, PUM1 PUF domain R4-GNT N971G + H972N + Q975T (Homo sapiens) (UniProt Q14671)
T8 sequence: T1 sequence with A144G, C148T

[9] = molecular target: T9, PUM1 PUF domain R4-GPR N971G + H972P + Q975R (Homo sapiens) (UniProt Q14671)
T9 sequence: T1 sequence with A144G, N145P, C148R

[10] = molecular target: T10, PUM1 PUF domain R4-GQG N971G + H972Q + Q975G (Homo sapiens) (UniProt Q14671)
T10 sequence: T1 sequence with A144G, N145Q, C148G

[11] = molecular target: T11, PUM1 PUF domain R4-HNA N971H + H972N + Q975A (Homo sapiens) (UniProt Q14671)
T11 sequence: T1 sequence with A144H, C148A

[12] = molecular target: T12, PUM1 PUF domain R4-HNL N971H + H972N + Q975L (Homo sapiens) (UniProt Q14671)
T12 sequence: T1 sequence with A144H, C148L

[13] = molecular target: T13, PUM1 PUF domain R4-HRV N971H + H972R + Q975V (Homo sapiens) (UniProt Q14671)
T13 sequence: T1 sequence with A144H, N145R, C148V

[14] = molecular target: T14, PUM1 PUF domain R4-KSQ N971K + H972S (Homo sapiens) (UniProt Q14671)
T14 sequence: T1 sequence with A144K, N145S, C148Q

[15] = molecular target: T15, PUM1 PUF domain R4-LNC N971L + H972N + Q975C (Homo sapiens) (UniProt Q14671)
T15 sequence: T1 sequence with A144L

[16] = molecular target: T16, PUM1 PUF domain R4-MNG N971M + H972N + Q975G (Homo sapiens) (UniProt Q14671)
T16 sequence: T1 sequence with A144M, C148G

[17] = molecular target: T17, PUM1 PUF domain R4-QGA N971Q + H972G + Q975A (Homo sapiens) (UniProt Q14671)
T17 sequence: T1 sequence with A144Q, N145G, C148A

[18] = molecular target: T18, PUM1 PUF domain R4-QGG N971Q + H972G + Q975G (Homo sapiens) (UniProt Q14671)
T18 sequence: T1 sequence with A144Q, N145G, C148G

[19] = molecular target: T19, PUM1 PUF domain R4-TNG N971T + H972N + Q975G (Homo sapiens) (UniProt Q14671)
T19 sequence: T1 sequence with A144T, C148G

[20] = molecular target: T20, PUM1 PUF domain R4-VPT N971V + H972P + Q975T (Homo sapiens) (UniProt Q14671)
T20 sequence: T1 sequence with A144V, N145P, C148T

GGCUAGAACUAGUGGAUCCCCCGGCGCCCGGCGGCUCGAGCCCGGGUAAGUGUAAAUAGUCUGCAUGCCGCCGGGCGCCAUGCCUGCAGGUCGACUCUAGAAAACAUG
binding signal (log2 enrichment (interaction score)) [1]: -0.15 | binding signal (log2 enrichment (interaction score)) [2]: -3.49 | binding signal (log2 enrichment (interaction score)) [3]: -0.53 | binding signal (log2 enrichment (interaction score)) [4]: -0.74 | binding signal (log2 enrichment (interaction score)) [5]: -0.17 | binding signal (log2 enrichment (interaction score)) [6]: -0.52 | binding signal (log2 enrichment (interaction score)) [7]: -0.45 | binding signal (log2 enrichment (interaction score)) [8]: -0.86 | binding signal (log2 enrichment (interaction score)) [9]: -0.11 | binding signal (log2 enrichment (interaction score)) [10]: -0.27 | binding signal (log2 enrichment (interaction score)) [11]: -0.48 | binding signal (log2 enrichment (interaction score)) [12]: 0.04 | binding signal (log2 enrichment (interaction score)) [13]: -0.17 | binding signal (log2 enrichment (interaction score)) [14]: -1.07 | binding signal (log2 enrichment (interaction score)) [15]: -2.04 | binding signal (log2 enrichment (interaction score)) [16]: -0.9 | binding signal (log2 enrichment (interaction score)) [17]: -0.91 | binding signal (log2 enrichment (interaction score)) [18]: -0.04 | binding signal (log2 enrichment (interaction score)) [19]: -0.08 | binding signal (log2 enrichment (interaction score)) [20]: -0.66

Reference: paper PMC8384837
